# Reference: PubChem BioAssay AID758 (NMMLSC, 2007)
# In all, about 190,000 compounds went through this assay and about 110 (0.058%) were called active. Inconclusive means that the source gave no clear call. Such entries were picked first, then a sample of the others.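 How the source made its calls: active means fluorescent GTP binding to Rab7 beads changed by at least 20 points from the 100% baseline, either direction, mostly lower; inconclusive means compound itself probably fluorescent, or too few beads counted; inactive means the rest.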
# Test system: Rab7 GTPase wild type (dog), Bodipy-FL-GTP binding
# Assay: modulators of GTP binding to Rab7, primary screen, biochemical, wildtype, multiplex bead flow cytometry (AID 758);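 further: median green fluorescence of bound Bodipy-FL-GTP per Rab7 bead population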
# Settings: GST-Rab7 beads, fluorescent GTP binding, at 10 µM, actives lie on both sides, untreated = 100%, excess cold GTP = 0%
row,Structure (SMILES),GTP binding activity (percent of control)
1,OCCC1CN(Cc2ccc3c(c2)CCO3)CCN1Cc1ccc(F)cc1 (stereo unspecified),inconclusive: 97%
2,COc1cc2[nH]c(=S)nc(NC3CCCC3)c2cc1OC,active: 74%
3,COc1ccc(/C=N\NC(=O)CCc2c(C)n[nH]c2C)c(OC)c1OC,inconclusive: 99%
4,CC1=C(C(=O)Nc2ccccc2)C(c2ccc(Cl)cc2)n2c(s/c(=C/c3cccc(OCC(=O)O)c3)c2=O)=N1 (stereo unspecified),inconclusive: 90%
5,Cc1cc(NC(=O)/C(C#N)=C/c2ccc(-c3ccc(SC(F)F)cc3)o2)n(-c2ccccc2)n1,inconclusive: 119%
6,COc1ccccc1NC(=O)C1=C(C)NC2=C(C(=O)CCC2)C1c1ccc2c(c1)OCO2 (stereo unspecified),inconclusive: 102%
7,O=C(COc1ncnc2cc([N+](=O)[O-])ccc12)NC(=O)NC1CCCCC1,inactive: 90%
8,Nc1nonc1C(=O)N/N=C/c1ccc(-c2cccc(C(=O)O)c2)o1,inactive: 101%
9,Cc1ccc(NC(=O)C2CCCN(C(=O)c3ccc(Cl)cc3)C2)cc1S(=O)(=O)N1CCOCC1 (stereo unspecified),inactive: 99%
10,Cc1ccc(C)n1-c1ccc(-c2ccnc(N)n2)cc1,inactive: 95%
11,CCOc1c(Br)ccc2c1sc1nc[nH]c(=O)c12,inactive: 100%
12,O=[N+]([O-])c1cccc(S(=O)(=O)c2ccc(NCCO)c([N+](=O)[O-])c2)c1,inactive: 96%
13,Cc1nc2nc(SCC(=O)O)nn2c(C)c1Cc1ccccc1Cl,inactive: 83%
14,CSc1ncccc1C(=O)OCC(=O)N1CCOCC1,inconclusive: 590%
15,FC(F)(F)c1ccccc1NC(=S)NC1CCN(Cc2ccccc2)CC1,inconclusive: 104%
16,Cc1cc(/C=N/NC(=O)C(=O)NCc2ccccn2)c(C)n1-c1cccc(Br)c1,inconclusive: 95%
17,O=S(=O)(Nc1cccc(-c2cn3cccnc3n2)c1)c1ccc(-c2ccccc2)cc1,inactive: 96%
18,COc1ccc(C(=O)NCCc2cc3ccc(C)c(C)c3[nH]c2=O)cc1OC,inconclusive: 89%
19,CCn1c(=N)c(C(=O)NCCCOC)cc2c(=O)n3cccc(C)c3nc21,inconclusive: 93%
20,CSc1ccc(S(=O)(=O)Nc2ccc3c(c2)OCCO3)cc1,inconclusive: 105%
21,CC(C)c1[nH]nc2c1C1(CCN(Cc3ccccc3)CC1)C(C#N)=C(N)O2,inconclusive: 108%
22,CCn1c(CNc2cccc(C(F)(F)F)c2)n[nH]c1=S,inactive: 102%
23,COc1ccc(-n2c(N)c(C(=O)NCc3ccco3)sc2=S)cc1,inconclusive: 97%

# Taken from above.
# Entry of O=S(=O)(Nc1cccc(-c2cn3cccnc3n2)c1)c1ccc(-c2ccccc2)cc1 under GTP binding activity (percent of control): inactive: 96%
# Entry of COc1ccccc1NC(=O)C1=C(C)NC2=C(C(=O)CCC2)C1c1ccc2c(c1)OCO2 (stereo unspecified) under GTP binding activity (percent of control): inconclusive: 102%

# Continuation.

row,Structure (SMILES),GTP binding activity (percent of control)
1,CCOC(=O)c1c(NC(=O)CSc2ncnc3[nH]ncc23)sc2c1CCC(C)C2 (stereo unspecified),inconclusive: 95%
2,CCN1C(=O)C(CC(=O)Nc2ccc(F)cc2)N(CCc2ccc(OC)cc2)C1=S (stereo unspecified),inconclusive: 172%
3,CCOc1cc(/C=N/NC(=O)c2ccc(CN3CCOCC3)cc2)ccc1OC,inconclusive: 94%
4,CC(C)c1nc2sc3c(=O)[nH]cnc3c2c2c1CCC2,inconclusive: 90%
5,O=C(Cn1c(=S)[nH]c2ccccc2c1=O)N1CCN(c2ccc(F)cc2)CC1,inactive: 100%
6,Cc1cc(-c2n[nH]c(=S)n2/N=C/C(Cl)=C/c2ccccc2)n[nH]1,active: 77%
7,C=CCn1c(-c2cc3cccc(OC)c3o2)n[nH]c1=S,inconclusive: 89%
8,COc1ccc(NC(=O)COc2ccccc2C#N)c(S(=O)(=O)N2CCCCC2)c1,inconclusive: 100%
9,O=C(COc1ccc([N+](=O)[O-])cc1)Nn1cnnc1,inconclusive: 88%
10,CC(=O)NCCn1c(SCC(=O)OCc2ccccc2)nc2ccccc2c1=O,inconclusive: 96%
11,Cc1cccn2c(=O)c(/C=C3\SC(=S)N(CC(C)C)C3=O)c(NCCCOC(C)C)nc12,inconclusive: 131%
12,CN(C)CCN(C(=O)c1ccc(N2C(=O)CCC2=O)cc1)c1nc2cc3c(cc2s1)OCO3,inconclusive: 105%
13,CC(=O)OCC1=C(C(=O)O)N2C(=O)C(NC(=O)CCn3nc(C(F)(F)F)c(Br)c3C3CC3)C2SC1 (stereo unspecified),inactive: 96%
14,c1ccc(-c2onc3c2CCCC3)cc1,inconclusive: 966%
15,Cc1cccc(CN2C(=O)CCSc3ccc(Cl)cc32)c1,inconclusive: 102%
16,COc1ccc(/C=N/NC(=O)CCSc2nc3ccccc3s2)cc1OC,inconclusive: 96%
17,COc1ccc2nc(-n3c(O)c(C4=c5ccccc5=NC4=O)[nH]c3=S)sc2c1,inactive: 94%
18,Cc1nc2ccc(-c3nc4ccc(N)cc4[nH]3)cc2[nH]1,inconclusive: 154%
19,COCCn1cnnc1SCC(=O)Nc1sccc1C(N)=O,inconclusive: 96%
20,COc1ccc(-c2nc(-c3cccs3)c(-c3cccs3)[nH]2)cc1O,inconclusive: 90%
21,O=[N+]([O-])c1cc(/C=N/N/C(=N/c2ccccn2)c2ccccn2)ccc1O,inconclusive: 92%
22,N#CCCN1CCN(C2=NC(=O)/C(=C\c3cccs3)S2)CC1,inactive: 95%
23,COc1ccccc1/C=C1/SC(=O)N(CCC(=O)Nc2ccc(S(=O)(=O)Nc3nccs3)cc2)C1=O,inconclusive: 96%

# Compounds shown so far containing a CF3 group:
row,Structure (SMILES),GTP binding activity (percent of control)
15,FC(F)(F)c1ccccc1NC(=S)NC1CCN(Cc2ccccc2)CC1,inconclusive: 104%
22,CCn1c(CNc2cccc(C(F)(F)F)c2)n[nH]c1=S,inactive: 102%
13,CC(=O)OCC1=C(C(=O)O)N2C(=O)C(NC(=O)CCn3nc(C(F)(F)F)c(Br)c3C3CC3)C2SC1 (stereo unspecified),inactive: 96%

# (cont.)

row,Structure (SMILES),GTP binding activity (percent of control)
1,Cc1ccc(C)c(C(C)NC(=O)CC#N)c1 (stereo unspecified),inconclusive: 100%
2,COc1ccc(-n2cc(-c3ccccc3)c3c(N4CCOCC4)ncnc32)cc1,inactive: 94%
3,COc1ccc(C2C(C(=O)NCc3ccco3)CCC(=O)N2c2ccc(OC)cc2)cc1 (stereo unspecified),inconclusive: 103%
4,CCOC(=O)/C(N=Nc1ccc(F)cc1)=C(/O)c1ccc([N+](=O)[O-])cc1,inactive: 104%
5,CCCNC(=O)c1ccc(C2SCC(=O)N2CCc2ccccc2)cc1 (stereo unspecified),inactive: 99%
6,Cc1cccc(N2CCN(C(=O)Cc3ccc(Br)cc3)CC2)c1C,inconclusive: 92%
7,O=C(O)c1ccccc1COc1ccccc1Cl,inactive: 109%
8,COc1ccccc1NC(=S)N(CCCN1CCOCC1)Cc1cccs1,inactive: 98%
9,CCOC(=O)C1(Cc2ccccc2)CCCN(CCO)C1 (stereo unspecified),inconclusive: 114%
10,CCSc1nnc(-c2ccccc2N=Cc2c(C)[nH]n(-c3ccccc3)c2=O)c(=O)[nH]1,inconclusive: 92%
11,O=C(CCc1nnc(CCC2CCCCC2)o1)NCc1ccon1,inactive: 104%
12,O=C(Cn1c2[n+](c3ccccc31)CC(O)CS2)c1ccccc1 (stereo unspecified),inactive: 102%
13,CN(C)/C=C(/C(=O)c1ccccc1Cl)S(C)(=O)=O,inactive: 104%
14,CCSCc1nnc(SCC(=O)Nc2ccc(OC)cc2)n1C,inactive: 101%
15,O=C(Nc1nc(-c2ccccn2)cs1)C1CC(=O)N(c2ccc3c(c2)OCCO3)C1 (stereo unspecified),inactive: 99%
16,Cc1nc2cc(NC(=O)NC3CC3)ccc2n1C,inconclusive: 97%
17,Clc1ccc(Cc2nc(-c3ccncc3)no2)cc1,inconclusive: 95%
18,C=CCNc1cc(N2CCCC2)ccc1[N+](=O)[O-],inactive: 94%
19,COc1cc(NC(=O)COC(=O)c2nc3nc(C)cc(C)n3n2)cc(OC)c1,inactive: 102%
20,CCOc1ccccc1Nc1nnc(SCC(=O)NC(Cc2c[nH]c3ccccc23)C(=O)O)s1 (stereo unspecified),inconclusive: 86%
21,CC(CC(C)C(=O)Nc1ccccc1C(C)(C)C)C(=O)O (stereo unspecified),inactive: 96%
22,Fc1ccc(C(Nc2ccccn2)c2c[nH]c3ccccc23)cc1 (stereo unspecified),inconclusive: 90%
23,CCOc1ccc(N2C(=O)CC(N(CCc3ccc(OC)cc3)C(=O)/C=C/C(=O)O)C2=O)cc1 (stereo unspecified),inconclusive: 91%

row,Structure (SMILES),GTP binding activity (percent of control)
1,CCOc1c(Cl)cc(Cl)cc1CNCCNCCO,inconclusive: 97%
2,Cn1nnnc1Sc1ncnc2scc(-c3ccc(F)cc3)c12,inconclusive: 139%
3,COc1ccc(-c2cc(-c3ccccc3)n3ncnc3n2)cc1,inconclusive: 103%
4,O=C(NCc1ccc2c(c1)OCO2)c1ccc(S(=O)(=O)N2CCOCC2)cc1,inactive: 107%
5,Cc1nn(Cc2ccc(F)cc2)c2sc(C(=O)Nc3ccc(N4CCOCC4)cc3N3CCOCC3)cc12,inconclusive: 97%
6,CC(C)N(C)NC(=S)Nc1ccccc1,inconclusive: 248%
7,CC(=O)c1ccc(-n2nncc2-c2ccc([N+](=O)[O-])cc2)cc1,inconclusive: 98%
8,CC(NC(=O)Cn1cc(C(F)(F)F)ccc1=O)c1ccc(F)cc1 (stereo unspecified),inactive: 102%
9,c1ccc2oc(SCc3nc4ccccc4s3)nc2c1,inconclusive: 87%
10,CCOc1ccc(C2C(C(=O)O)CCC(=O)N2C2CCCCC2)cc1 (stereo unspecified),active: 74%
11,COc1ccc(/C=C/C(=O)Nc2ccccc2C(F)(F)F)cc1OC,inconclusive: 91%
12,CN(C)S(=O)(=O)c1ccc(Cl)c(C(=O)Nc2nc3ccccc3[nH]2)c1,inconclusive: 88%
13,CN(C)C(=O)CSc1nc(SCC(=O)N(C)C)n(-c2ccccc2)n1,inconclusive: 98%
14,Cc1cc(C)cc(NC(=O)NCc2nnc(SCc3ccccc3)n2C)c1,inconclusive: 90%
15,COc1cccc2cc(-c3ccnc(=S)[nH]3)oc12,inconclusive: 84%
16,Cc1ccc(S(=O)(=O)NC(C(=O)N2CCOCCOCCOCC2)c2ccccc2)cc1 (stereo unspecified),inactive: 95%
17,CCOC(=O)CSc1nc2c(sc(=S)n2-c2ccccc2)c(=O)[nH]1,inconclusive: 93%
18,CC(=O)Nc1nc(C2CC2)cc(-c2ccccc2)c1C#N,inactive: 92%
19,O=C(Nc1nc(-c2ccncc2)cs1)c1ccc(S(=O)(=O)N2CCOCC2)cc1,inconclusive: 95%
20,COc1ccc(NC(=O)CSc2[nH]c(=O)cc(C)c2C#N)cc1OC,inconclusive: 95%
21,CCN(C(=O)CSc1nnc(C)n1-c1ccccc1)C1CCS(=O)(=O)C1 (stereo unspecified),inconclusive: 97%
22,CCCCC(=O)Nc1ccc(C(=O)NNC(=O)CCc2ccccc2)cc1,inconclusive: 108%
